# Library screen at single concentrations

By UniProt entry, the sequences of proteins in these tests, tags left out.
UniProt P9WNZ1, whole entry: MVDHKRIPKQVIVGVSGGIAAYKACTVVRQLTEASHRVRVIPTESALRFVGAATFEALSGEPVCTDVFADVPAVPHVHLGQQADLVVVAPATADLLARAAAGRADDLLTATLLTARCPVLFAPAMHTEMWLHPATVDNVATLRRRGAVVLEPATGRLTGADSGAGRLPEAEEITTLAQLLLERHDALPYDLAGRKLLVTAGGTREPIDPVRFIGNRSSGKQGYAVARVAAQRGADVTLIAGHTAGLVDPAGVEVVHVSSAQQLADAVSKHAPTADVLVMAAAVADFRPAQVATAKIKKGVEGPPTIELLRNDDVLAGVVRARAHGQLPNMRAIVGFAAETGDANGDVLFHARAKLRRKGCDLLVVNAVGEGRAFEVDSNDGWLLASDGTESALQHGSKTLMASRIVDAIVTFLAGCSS

The filed quantity is “Percent Effect” (%). The controls that fix the scale are not given in the record; negative values are as filed. This is an unselected part of the compounds tested. Two or more numbers in one place are separate tests of the same structure; such repeats can differ widely. A dash means the value is not listed here; it may have been measured.

A: 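Coenzyme A biosynthesis protein CoaBC, Mycobacterium tuberculosis (UniProt P9WNZ1). Enzyme assay of CoaBC with a phosphate dye (Biomol Green) read at 650 nm. Concentration: 30 µM. Direction is inferred from only a few compounds that gave an IC50; most scored high, so higher reads as stronger inhibition. Most strong results did not repeat in a second test. Size under these conditions: about 67,000 compounds, about 40 of them at 50% or above in at least one test.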
B: 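Cell assay of Leishmania donovani living inside macrophages; the read-out is not stated. Tested at 30 µM. Direction is inferred from retests: higher values go with stronger inhibition. About 69,000 compounds were tested under these conditions; 1.5% (about 1,000) showed 50% or more at least once.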

Compound,A,B
CN(C)C(=O)N1CCC2(CC(=O)N(c3cccc(C#N)c3)C2)C1 (stereo not given),-10.92%,16.17%
CC(C)(C)OC(=O)NC1CCCN(Cc2cccc(O)c2)C1 (stereo not given),-0.8%,-29.49%
NC(=O)c1ccc(CN2CCC(N3CCCC3)CC2)cc1,4.061%,15.92%
CC(=O)Nc1nc(C2CCN(C(=O)c3ccncc3)CC2)cs1,1.453%,17.12% and 3.53%
O=C(Nc1ccccc1)C1CCCN(c2cc(-n3cncn3)ncn2)C1 (stereo not given),5.708%,6.252% and 2.816%
CS(=O)(=O)N1CCO[C@@H]2CN(C(=O)N3CCOCC3)CC[C@@H]2C1,0.7426%,-
CO[C@H]1C[C@@H]2CN(C(=O)c3cc4ccc(F)cc4[nH]3)C[C@@H]2C1,1.84%,-
COCCN(Cc1ccccn1)C(=O)CC1OCCc2ccccc21 (stereo not given),-11.6%,1.367%
O=c1ccc(-n2cccn2)nn1CCNS(=O)(=O)c1ccc(F)c(Cl)c1,7.4%,21.61% and -6.359%
CCc1cc(N2CCC(NCCc3ccc(C)o3)CC2)nc(C)n1,15.68%,9.521%
Cn1cc(CN2CCC(c3ncc(Cl)cc3S(C)(=O)=O)CC2)cn1,9.927%,20.46%
O=C(c1cccc(N2CCCC2=O)c1)N1CCCC(n2cccn2)C1 (stereo not given),0%,18.83%
Cc1ccc(C(=O)NCCNC(=O)c2cncnc2C(C)C)cc1F,-1.518%,32.72%
Cn1cc(N2CCC(NC(=O)c3c(F)cccc3Cl)C2=O)cn1 (stereo not given),3.004%,-2.727%
C[C@@H]1CN(C(=O)CCc2nncn2C)C[C@@]1(O)C1CCC1,-8.557%,7.924%
CCOc1ccccc1OC1CCN(C(=O)c2cc[nH]n2)CC1,1.862%,-3.431%
Cc1noc(-c2ccnc(Oc3ccc(CN4CCCC4)cc3F)c2)n1,-4.978%,2.098%
O=C(CN1CCCC1Cn1cncn1)Nc1nccs1 (stereo not given),1.786%,19.46%
COc1ccccc1CN(C)C(=O)NCc1c(C)cc(C)[nH]c1=O,1.956%,17.34%
Cc1ccc2cc(CN(C)Cc3ccncn3)c(=O)[nH]c2c1,-1.366%,34.48%
Cc1nccc(C(=O)N2CCCC2c2c(C)nn(C)c2C)n1 (stereo not given),0.1272%,-10.62%
COCCNC(=O)c1nc(-c2ccc3cc[nH]c3c2)no1,1.768%,6.377%
CN(C)c1ncc(CNC2CC(=O)N(CCc3cccc(Cl)c3)C2)s1 (stereo not given),9.532%,27.94%
Cn1cc(Br)cc(NC(=O)Cc2cccs2)c1=O,-2.233%,-25.87%
CCOc1c(Br)cc(CNCCc2nnc3n2CCCCC3)cc1OC,0.8%,-
CC(c1ccncc1)N(CCN(C)C)C(=O)Nc1ccc(Cl)cc1 (stereo not given),2.025%,-10.57%
O=C(O)C(F)(F)F.[H][C@@]12CCN(Cc3cc(C)on3)C[C@]1(C(=O)NCc1ccco1)CCO2,-,-13.26%
CCN1CCN(Cc2c(C3CCCC3)[nH]c3ncccc23)CC1,1.453%,20.48% and 28.59%
CC(C)NC(=O)N1CCn2c(nnc2C2CCCN2)C1 (stereo not given),-4.474%,-0.467%
CCOc1cc(=O)n2c(c1C(=O)OCc1ccc(C)cc1)CCCC2,6.197%,-22.26%
Cc1nn(CC(=O)N2CCN(Cc3cnn(C)c3C)CC2)cc1Br,-2.651%,-24.58%
Cc1ccc2c(n1)N(Cc1cccnc1)CCN(C(=O)C1CC=CC1)C2,4.562%,-19.75%
OCCOc1ccccc1CN1CCCC(O)(CO)C1 (stereo not given),-5.433%,7.25%
O=C(NCC1CCCCC1)N1C[C@H]2C[C@H](C(=O)N3CCOCC3)[C@@H](C1)O2,-4.68%,-
CC(C)N1CCC2(CCCN(c3nccc(C(F)(F)F)n3)C2)CC1,3.053%,-
Cc1ccc(Oc2ncccc2CNC(=O)C2COC(=O)N2)c(F)c1F (stereo not given),2.133%,24.22%
CCc1c(C(=O)N2CCN(c3ncccn3)CC2)cnn1C(C)(C)C,8.848%,5.635%
[H][C@@]12CCN(C(C)=O)C[C@]1([H])CCN(C1CCCCC1)C(=O)C2,-,13.29%
O=C(O)C(F)(F)F.O=C(O)C(F)(F)F.[H][C@@]12COC[C@]1(CN(C)C)CN(C(=O)c1cccnc1OC)C2,-,-4.198%
COCC(=O)Nc1ccc([C@@H](O)[C@H]2COCC(=O)N2C)cc1,-0.1965%,-
CCS(=O)(=O)NCC1CCN(c2cnccn2)CC1,1.186%,8.594%
CC(NC(=O)NCC1(c2ccc(F)cc2)CCCC1)c1nncn1C (stereo not given),0.894%,27.7%
Cc1nnc([C@H]2CC[C@@H]3[C@@H](CCN3CC3CCOCC3)O2)o1,5.906%,-
Cc1ccc2nc(C)cc(C(=O)N3C[C@H]4CCC[C@@]4(CO)C3)c2c1,-0.9756%,-
CCN(CC)c1ncc2c(c1C(=O)O)CCN(C1CCOC1)C2.O=C(O)C(F)(F)F (stereo not given),-,21.11%
[H][C@@]12COC[C@]1(c1nnc(C3CC3)o1)CN(C(=O)c1ocnc1C)C2,-,3.796%
CCC(C)(C)C(=O)NCCCOC1CCOC1 (stereo not given),-,-2.964%
OC1(CN2CCCC2)COCCN(c2nnc(-c3ccccc3)s2)C1 (stereo not given),5.897%,-62.33%
CC(c1ccc(Cl)cc1)N1CCN(CCCS(C)(=O)=O)CC1 (stereo not given),1.467%,11.1%
CCN1CCN(CC(O)c2ccc(OC(F)(F)F)cc2)CC1 (stereo not given),5.575%,18.61%
CCN1CC(COC(=O)c2cc(Br)ccc2F)CC1=O (stereo not given),-2.232%,-7.569%
CCCc1nc(N2CCCCCC2)c2c(n1)c(C)nn2CC,14.77%,-0.7972%
CCOc1cc(CNC(=O)NCc2nc(C)c(C)s2)ccn1,-,27.02%
O=C(NCc1cccs1)c1nc2c(o1)CN(C(=O)c1cccnc1)C2.O=C(O)C(F)(F)F,-,-27.85%
Cc1ccc(S(=O)(=O)N2CCOCC2C#N)c(F)c1 (stereo not given),-1.503%,-4.207%
CCc1n[nH]c(C2CN(C(=O)c3nc(C)ncc3Cl)CCO2)n1 (stereo not given),-1.845%,15.85%
N#CC1(NC(=O)c2ccc(-c3nc(C4CC4)n[nH]3)cc2)CCC1,5.216%,4.295%
CNc1cc(N2CCCC2CNCc2c[nH]nc2C(C)(C)C)ncn1 (stereo not given),-10.97%,14.59%
N#Cc1ccc(F)c(CN2CCCC2Cn2cncn2)c1 (stereo not given),-4.783%,26.28%
Cl.Cl.[H][C@@]12CN(CCc3ccccc3)C[C@]1([H])C2CN (stereo not given in full),-,31.54%
COCCN1CCCC2(CCN(Cc3nnc(C4CC4)o3)C2)C1=O (stereo not given),5.732%,9.62%
COC1CCN(c2ccc(NC(=O)Cn3cccn3)cc2)CC1,0%,9.997% and 13.28%
O=C(O)C(F)(F)F.O=C1COC2(CCN(Cc3ccc(F)cc3)CC2)CN1,-,35.43%
CN(C)C(=O)c1ccc(CNC(=O)NCCN(C)C2CCCC2)cc1,3.203%,-2.973%
CN(C)S(=O)(=O)c1ccc2c(c1)N(Cc1ccccn1)CCC2,3.113%,6.286%
Cc1cc(S(=O)(=O)N2CCCc3ccc(F)cc32)sc1C(=O)O,-10.71%,7.009%
Cc1cnccc1CN1C[C@@H](O)[C@H](Oc2ccccc2)C1,2.222%,11.02%
O[C@@H]1CN(CC2=Cc3cc(Cl)ccc3OC2)CC[C@H]1N1CCCCCC1,6.829%,44.96%
CSCC(=O)NS(=O)(=O)c1ccc(C#N)c(C(F)(F)F)c1,2.417%,-6.225%
O=C(O)C(F)(F)F.O=C(O)C(F)(F)F.[H][C@@]12CCCO[C@]1([H])[C@H](N(C)Cc1ccco1)CN(Cc1ccc(C)s1)C2,-,35.71%
COCCN1CCC(c2nc3cc(C)ccc3[nH]2)CC1,-9.202%,13.06%
CC(C)N(C)Cc1ncn2c1CN(S(=O)(=O)c1cccs1)CCC2,-6.189%,-
[H][C@@]12C[C@@H](Oc3cccnc3)CN1CCN(Cc1ccccn1)C2,-,20.61%
CC(NC(=O)Cn1cccn1)c1ccc2c(c1)OCCCO2 (stereo not given),-0.4819%,-4.716%
[H][C@]12C[C@H](C(=O)NCC3CC3)N(C)[C@@]1([H])CN(Cc1ccc(C)o1)C2,-,22.64%
COc1ccc(-c2noc(C(CC(C)C)N3CCCCC3=O)n2)cn1 (stereo not given),1.2%,13.67%
c1csc(-c2nc(CNC3CCc4ncnn4C3)co2)c1 (stereo not given),0.7229%,-23.89%
O=C(C1CCOCC1)N1CCc2ncc(CN3CCCC3)n2CC1.O=C(O)C(F)(F)F,-,26.51%
Cc1ccnc(NCCCN2CCc3ccccc32)n1,-0.2237%,20.07%

Repeated from the top, 7 entries:

- CN(C)C(=O)N1CCC2(CC(=O)N(c3cccc(C#N)c3)C2)C1 (stereo not given) : A: -10.92%; B: 16.17%
- CC(C)(C)OC(=O)NC1CCCN(Cc2cccc(O)c2)C1 (stereo not given) : A: -0.8%; B: -29.49%
- NC(=O)c1ccc(CN2CCC(N3CCCC3)CC2)cc1 : A: 4.061%; B: 15.92%
- CC(=O)Nc1nc(C2CCN(C(=O)c3ccncc3)CC2)cs1 : A: 1.453%; B: 17.12% and 3.53%
- O=C(Nc1ccccc1)C1CCCN(c2cc(-n3cncn3)ncn2)C1 (stereo not given) : A: 5.708%; B: 6.252% and 2.816%
- CS(=O)(=O)N1CCO[C@@H]2CN(C(=O)N3CCOCC3)CC[C@@H]2C1 : A: 0.7426%
- CO[C@H]1C[C@@H]2CN(C(=O)c3cc4ccc(F)cc4[nH]3)C[C@@H]2C1 : A: 1.84%

Source: ChEMBL document CHEMBL3988442, “University of Dundee, Small-Polar-MMV Screening Library” (2021).